Results deposited as PubChem BioAssay AID1224830 (NIAID, 2016).
The whole screen tested about 18,000 reagents; this is a part drawn at random. Over the whole deposit, about 2,900 (16%) are marked active. 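Calls are made per well; low scores hint the gene aids the LPS response, high scores that it dampens it.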 Repeated entries: four replicate wells of each siRNA pool.

- Assay: 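Regulators of TLR4 signalling towards TNF-alpha in macrophage-like cells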 (primary screen)
- Cells: human THP-1 monocytic leukaemia cells, TNF dual-luciferase reporter clone, PMA-differentiated to macrophage-like cells
- Reagent: siRNA pool against human genes, 50 nM
- Timing: LPS for 4 h, given about 3 days after siRNA transfection
- Conditions: bacterial LPS (TLR4 ligand), 10 ng/ml
- Measurement: 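Ratio of firefly to renilla light, scaled to the plate median and expressed as a robust z-score per replicate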
- Direction: TNF reporter robust z-score: higher = stronger TNF reporter response to LPS
- Active means: 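Each well counts as active if its z-score is over 2.8 or under -1.5; controls are left without a call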

Knock-down of LACC1 (laccase domain multifunctional purine nucleosidase 1) gave: TNF reporter robust z-score 0.37; inactive.
For LACC1 (laccase domain multifunctional purine nucleosidase 1) the deposit lists TNF reporter robust z-score 1.15; inactive.
LACC1 (laccase domain multifunctional purine nucleosidase 1) scored TNF reporter robust z-score 0.77; inactive.
For LACC1 (laccase domain multifunctional purine nucleosidase 1) the deposit lists TNF reporter robust z-score -0.39; inactive.
Silencing of FOXP3 (forkhead box P3) gave: TNF reporter robust z-score 0.7; inactive.
FOXP3 (forkhead box P3) scored TNF reporter robust z-score 0.46; inactive.
Silencing of FOXP3 (forkhead box P3) came out at: TNF reporter robust z-score 0.85; inactive.
For FOXP3 (forkhead box P3) the deposit lists TNF reporter robust z-score 1.15; inactive.
After knock-down of MSRB3 (methionine sulfoxide reductase B3), the screen gave TNF reporter robust z-score -2.06; active.
With knock-down of MSRB3 (methionine sulfoxide reductase B3), the record shows TNF reporter robust z-score -0.83; inactive.
MSRB3 (methionine sulfoxide reductase B3) showed TNF reporter robust z-score -1.56; active.
For MSRB3 (methionine sulfoxide reductase B3) the deposit lists TNF reporter robust z-score -1.26; inactive.

Quoted from the listing, 4 entries:
FOXP3 (forkhead box P3) → TNF reporter robust z-score = 0.85; Outcome = inactive
FOXP3 (forkhead box P3) → TNF reporter robust z-score = 1.15; Outcome = inactive
MSRB3 (methionine sulfoxide reductase B3) → TNF reporter robust z-score = -2.06; Outcome = active
MSRB3 (methionine sulfoxide reductase B3) → TNF reporter robust z-score = -0.83; Outcome = inactive

The list goes on.
Against TMEM132B (transmembrane protein 132B) the deposit lists TNF reporter robust z-score -1.41; inactive.
After knock-down of TMEM132B (transmembrane protein 132B), the record shows TNF reporter robust z-score -1.69; active.
With knock-down of TMEM132B (transmembrane protein 132B), the record shows TNF reporter robust z-score -1.22; inactive.
Depletion of TMEM132B (transmembrane protein 132B) came out at: TNF reporter robust z-score -0.72; inactive.
Silencing of OR5L2 (olfactory receptor family 5 subfamily L member 2) came out at: TNF reporter robust z-score -0.99; inactive.
With knock-down of OR5L2 (olfactory receptor family 5 subfamily L member 2), the screen gave TNF reporter robust z-score -0.68; inactive.
Against OR5L2 (olfactory receptor family 5 subfamily L member 2), the entry reads TNF reporter robust z-score -1.04; inactive.
After knock-down of OR5L2 (olfactory receptor family 5 subfamily L member 2) the results were TNF reporter robust z-score -1.96; active.
FBXO40 (F-box protein 40) gave TNF reporter robust z-score -1.44; inactive.
Silencing of FBXO40 (F-box protein 40) gave: TNF reporter robust z-score 1.31; inactive.
Depletion of FBXO40 (F-box protein 40) resulted in: TNF reporter robust z-score -0.97; inactive.
Against FBXO40 (F-box protein 40) the deposit lists TNF reporter robust z-score 1.39; inactive.
Depletion of ZNF140 (zinc finger protein 140) gave: TNF reporter robust z-score 0.59; inactive.
ZNF140 (zinc finger protein 140) showed TNF reporter robust z-score 1.13; inactive.
After knock-down of ZNF140 (zinc finger protein 140), the record shows TNF reporter robust z-score 1.08; inactive.
After knock-down of ZNF140 (zinc finger protein 140), the screen gave TNF reporter robust z-score 1.4; inactive.
With knock-down of OSBPL8 (oxysterol binding protein like 8), the screen gave TNF reporter robust z-score 0.13; inactive.
After knock-down of OSBPL8 (oxysterol binding protein like 8), the screen gave TNF reporter robust z-score 0.49; inactive.
OSBPL8 (oxysterol binding protein like 8) scored TNF reporter robust z-score 1.5; inactive.
OSBPL8 (oxysterol binding protein like 8) showed TNF reporter robust z-score 0.33; inactive.
